Results deposited as PubChem BioAssay AID743454 (Peter MacCallum Cancer Centre, 2014).

Aim: 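Genes whose loss kills vorinostat-resistant colon cancer cells under vorinostat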 (primary screen)
Cell system: human HCT116-VR colon cancer cells, selected for vorinostat resistance
Reagent: siRNA pool against human genes, 40 nM siRNA pool
Duration: vorinostat for 24 h, read-out about 72 h after transfection
Conditions: vorinostat at 2.5 µM final
Measurement: 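Two measures, CellTiter-Fluor viability and luminescent caspase 3/7 activity, each as fold change against same-plate mock wells, mean of duplicates, then screen-wide robust z-score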
Reading the numbers: viability robust z-score: higher = more viable cells than screen typical; caspase robust z-score: higher = more caspase 3/7 activity than screen typical
Rule for the call: 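a knock-down is a hit when classed RV1 or RV2 for lowered viability, or CA1 or CA2 for caspase activation; those lethal without drug were dropped; hits were retested singly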
The whole screen tested about 18,000 reagents; this is a part drawn at random. In the full data, 450 (2.5%) were called active. 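Single biological run; no consistent viability z cut-off exists, so the class columns, not z-scores, define the calls.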 Reagent sequences are not shown.

WDPCP (GeneID 51057): viability hit class = no change; caspase hit class = no change; viability robust z-score = 1.02; caspase robust z-score = 2.76; Call = inactive
NAXD (GeneID 55739): viability hit class = no change; caspase hit class = no change; viability robust z-score = -0.06; caspase robust z-score = -0.4; Call = inactive
CEACAM18 (GeneID 729767): viability hit class = no change; caspase hit class = no change; viability robust z-score = -0.09; caspase robust z-score = -0.14; Call = inactive
MRTFA (GeneID 57591): viability hit class = no change; caspase hit class = no change; viability robust z-score = 1.71; caspase robust z-score = -0.74; Call = inactive
MARCHF3 (GeneID 115123): viability hit class = no change; caspase hit class = no change; viability robust z-score = 0.75; caspase robust z-score = 0.09; Call = inactive
ADH5 (GeneID 128): viability hit class = no change; caspase hit class = no change; viability robust z-score = -1.89; caspase robust z-score = 0.55; Call = inactive
HIC1 (GeneID 3090): viability hit class = no change; caspase hit class = no change; viability robust z-score = 0.29; caspase robust z-score = -0.7; Call = inactive
NAGLU (GeneID 4669): viability hit class = no change; caspase hit class = no change; viability robust z-score = -1.72; caspase robust z-score = 1.21; Call = inactive
USP14 (GeneID 9097): viability hit class = no change; caspase hit class = no change; viability robust z-score = -2.7; caspase robust z-score = 0.46; Call = inactive
QKI (GeneID 9444): viability hit class = no change; caspase hit class = no change; viability robust z-score = -0.85; caspase robust z-score = 1.44; Call = inactive
ACLY (GeneID 47): viability hit class = no change; caspase hit class = no change; viability robust z-score = 0.83; caspase robust z-score = -0.6; Call = inactive
INPP5D (GeneID 3635): viability hit class = no change; caspase hit class = no change; viability robust z-score = 1.06; caspase robust z-score = 0.4; Call = inactive
CHMP5 (GeneID 51510): viability hit class = no change; caspase hit class = no change; viability robust z-score = 0.78; caspase robust z-score = -0.15; Call = inactive
DERL2 (GeneID 51009): viability hit class = no change; caspase hit class = no change; viability robust z-score = -1.19; caspase robust z-score = -0.37; Call = inactive
IQCC (GeneID 55721): viability hit class = no change; caspase hit class = no change; viability robust z-score = 0.24; caspase robust z-score = 0.3; Call = inactive
GBP7 (GeneID 388646): viability hit class = no change; caspase hit class = no change; viability robust z-score = -0.31; caspase robust z-score = 2.48; Call = inactive
SPIRE2 (GeneID 84501): viability hit class = no change; caspase hit class = no change; viability robust z-score = 0.22; caspase robust z-score = -0.08; Call = inactive
PTGFRN (GeneID 5738): viability hit class = no change; caspase hit class = no change; viability robust z-score = 0.36; caspase robust z-score = -0.87; Call = inactive
DCAF4L1 (GeneID 285429): viability hit class = no change; caspase hit class = no change; viability robust z-score = 0.58; caspase robust z-score = 0.33; Call = inactive
INO80B (GeneID 83444): viability hit class = no change; caspase hit class = no change; viability robust z-score = -0.55; caspase robust z-score = -0.1; Call = inactive
RAB2A (GeneID 5862): viability hit class = no change; caspase hit class = no change; viability robust z-score = 0.16; caspase robust z-score = 1.14; Call = inactive
